pKd: −log10 of the molar value. The comparison behind a weaker result is the experiment's own reference, which may not be listed here. For some assays here: For at least one entry, the source does not settle the construct or the ends of the probe. For some assays here: At least one verdict was read from the data and is not stated in words by the source.
Legend:
SMAD3 MH1 (Homo sapiens) [1] = biological target: SMAD3 MH1 (Homo sapiens) (UniProt P84022); experiment: EMSA; conditions: EMSA: 25 mM Tris-HCl (pH not given for binding buffer; RNA stock pH 7.5), 115 mM KCl, 1 mM MgCl2, 1 mM DTT, 20 ng/ul poly I:C, 0.1 mg/ml BSA, 10% glycerol, on ice 2 h, recombinant protein, residues 1-132, protein details: 6xHis-SUMO cleaved; for binding result: single screen
SMAD3 MH1 (Homo sapiens) [2] = biological target: SMAD3 MH1 (Homo sapiens) (UniProt P84022); experiment: competition with a labelled probe; conditions: vs 1 nM labeled dsDNA 19, 350 nM SMAD3 MH1; EMSA: 25 mM Tris-HCl (pH not given for binding buffer; RNA stock pH 7.5), 115 mM KCl, 1 mM MgCl2, 1 mM DTT, 20 ng/ul poly I:C, 0.1 mg/ml BSA, 10% glycerol, on ice 2 h; recombinant protein; residues 1-132; protein details: 6xHis-SUMO cleaved; label: 5' 32P (EMSA), unlabeled as competitor

Chains of the proteins cited; added tags and fusions are not shown. Residues count along the entry.
UniProt P84022, 1-132: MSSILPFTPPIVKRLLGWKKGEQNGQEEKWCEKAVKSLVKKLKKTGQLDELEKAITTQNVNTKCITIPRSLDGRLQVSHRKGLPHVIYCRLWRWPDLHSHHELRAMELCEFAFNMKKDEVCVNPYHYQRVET

Sequence	binding result (SMAD3 MH1 (Homo sapiens) [1]; label: 5' 32P)	further results
GGACAACCAGUGUUCAGACUACCUGUUUCGACAGUAGUCUGCACACUGGUUGUCC [3a hsa-miR-199a-1 central stem]	binds more weakly	
GGACAAUCAGACUACCUGUUUCGACAGGUAGUCUGCUUGUCC [3b hsa-miR-199a1 minimal SBE]	binds more weakly	
GGACGAUGCUCAGACUCCUGUGUUCGCACGGAUGUUUGAGCAUCGUCC [2a pri-miRNA central stem (name elided in material)]	binds more weakly	
GGACGAUUGACAGACAAUAUAGCUGAGUUUGUCUGUCAUUCGUCC [4b hsa-miR-215 natural loop]	binds more weakly	
GGACGAUUGACAGACAAUAUGCGUUCGCGCAGUUUGUCUGUCAUUCGUCC [4a hsa-miR-215 central stem]	binds more weakly	
GGACGCUCUUGUCUGUCAGGCAGUGGAGUUACUUACAGACAAGAGCGUCC [7a hsa-miR-600 natural loop]	binds more weakly	
GGACGUGGCCCAGACCUCAGCUUCGGCUGAUGGACUGAGUCACGUCC [8a hsa-miR-631 central stem]	binds more weakly	
GGACGUUAAAUGUUUGUUGAGCGUUCGCGCUCAACAGACAUUAAUCGUCC [5a pri-miRNA central stem (name elided in material)]	binds more weakly	
GGAUCGAUCGAUCGAUCGGCAUCGAUCGGCUUCGGCCGAUCGAUGCCGAUCGAUCGAUCGAUCC [16 30-bp hairpin]		binding result (SMAD3 MH1 (Homo sapiens) [2]): binds more weakly
GGUGAGGUAGUAUGUAAGCUUCGGCUUUCAACUAACUCGCC [9b cel-miR-84 short]	binds more weakly	
GUAUGUCUAGACUGAA / TTCAGTCTAGACATAC [13 RNA/DNA hybrid duplex with 2 SBEs]		pKd (SMAD3 MH1 (Homo sapiens) [1]; label: 5' 32P on one strand, DNA:RNA hybrid): < 5.00
GUAUGUCUAGACUGAA / UUCAGUCUAGACAUAC [14 dsRNA duplex with 2 SBEs]		pKd (SMAD3 MH1 (Homo sapiens) [1]; label: 5' 32P on one strand): < 5.00
UCAACAUCAGUCUGAUAAGCUA / UAGCUUAUCAGACUGAUGUUGA [15 miR-21 RNA duplex]		pKd (SMAD3 MH1 (Homo sapiens) [1]; label: 5' 32P on one strand): < 5.00
UUUUUUUUUUUUUUUUUUUUUUUUUUUUUUUUUUUUUUUUUUUUUUUUUUUUUUU [12 U55]		pKd (SMAD3 MH1 (Homo sapiens) [1]; label: 5' 32P): < 5.00
